Source: patent US20250340653A1
No constants are given. Whether binding was seen depends on the method and setting. Some results given as binding are weak or reduced against the parent protein; the word gives no strength.

What was measured:
[1] = target: Canine IL-31RA ECD-10His (canine); assay: ELISA on coated canine IL-31RA (FIG. 7B)
[2] = target: Canine IL-31RA ECD-10His (canine); assay: ELISA on coated canine IL-31RA, 200 ng/well

binding [1]: binds
binding [2]: binds
B1: c100H8VH7VL4 (antibody, V domains shown)
VH: EVQLVQSGAEVKKPGASVKVSCKASGYTFTDYNMDWVRQAPGAGLDWIGHINPNNGGILYNQKFKGKATLTADTSTSTAYMELSSLRAGDIAVYYCARWAPLVRQPYWYFDVWGQGTLVTVSS
VL: DIVMTQTPLSLSVSPGETASISCKASQDINSYLNWFRQKPGQSPQLLIYRADRLVDGVPDRFSGSGSGTDFTLRISTVEADDTGVYYCLQYDEFPLTFGAGTKVELKR
